Experimental data from PubChem BioAssay AID2517 (National Center for Advancing Translational Sciences (NCATS), 2010).
“And” between values parts separate entries of the source, which are not always exact repeats. Equal values may be shown once. Among all 350,000 compounds or so, about 1,200 (0.34%) were called active. Inconclusive results, whose numbers are uncertain, are shown with a selection of clear calls. Calls follow the shape of the dose curve; as a rule, active = well fitted inhibition curve with a large enough effect; inconclusive = small, poorly fitted or top-dose-only effect; inactive = no such curve, though single readings can be large or run the other way. Where the call is inconclusive, the potency comes from a doubtful curve fit.

Sequences of proteins named here, by UniProt entry; tags and fusion partners are left off.
UniProt P27695, whole entry, looked up: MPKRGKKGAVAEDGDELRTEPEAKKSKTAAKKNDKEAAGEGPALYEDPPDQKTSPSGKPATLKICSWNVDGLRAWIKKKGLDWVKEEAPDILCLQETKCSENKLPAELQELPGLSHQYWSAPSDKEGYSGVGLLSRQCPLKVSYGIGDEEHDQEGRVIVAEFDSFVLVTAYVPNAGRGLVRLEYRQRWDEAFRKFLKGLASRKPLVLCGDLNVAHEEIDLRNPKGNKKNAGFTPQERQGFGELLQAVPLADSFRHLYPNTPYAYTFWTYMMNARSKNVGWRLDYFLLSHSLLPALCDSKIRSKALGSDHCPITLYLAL

Target: DNA repair nuclease/redox regulator APEX1 (Homo sapiens) (UniProt P27695)
Test: qHTS Assay for Inhibitors of the Human Apurinic/apyrimidinic Endonuclease 1 (APE1); also: nearly all actives have a fitted effect of over 55% in size;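 as to activity change, negative = inhibition: plate controls were vehicle for no effect and reference inhibitor for full effect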
Details: recombinant APE1, TAMRA/BHQ-2 abasic DNA cleavage fluorescence; activity change, negative = inhibition: at 65.8 µM (top of the series)
Summary of the method: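 Incision of a quenched TAMRA/BHQ-2 THF abasic-site duplex (50 nM) by 0.75 nM APE1, after 15 min compound preincubation, measured as fluorescence increase over three 60 s reads. Values normalized to buffer, DMSO and NSC13755 control wells.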
Potency is read from the fitted curve at half-maximal effect.

Row | Structure (SMILES) | Potency | activity change, negative = inhibition
1 | O=C1CCc2cc(S(=O)(=O)NCCCC(=O)N3CCN(Cc4ccc5c(c4)OCO5)CC3)ccc2N1 | inconclusive: 25.1 µM [inhibitor, partial curve, poor fit] | –
2 | Cc1ccc(SCC(=O)Nc2cccc(C)c2)cc1 | inactive | –
3 | CCOc1ccc(N=C2SC(C(=O)Nc3ccccc3C#N)C(N)=C2C(=O)Nc2ccc(Cl)cc2)cc1 (configuration not stated) | inconclusive: 31.6 µM [inhibitor, single point] | –
4 | C=CCN1C(=O)/C(=C2/Sc3ccccc3N2CCCS(=O)(=O)O)SC1=S | inconclusive: 39.8 µM [inhibitor, single point] | –
5 | COc1cc(OC)c2ccc(=O)oc2c1C(CCN1CCOCC1)c1ccc2c(c1)OCO2 (configuration not stated) | inconclusive: 50.1 µM [inhibitor, single point] | –
6 | C1CCCNCC1 | inactive | –
7 | O=C(NN=C1CCCCCCC1)c1ccc2ccccc2n1 | inconclusive: 10 µM [inhibitor, single point] | –
8 | COc1cc(N=C(N)N=C(N)N)cc(OC)c1 | inconclusive: 7.94 µM [inhibitor, single point] | –
9 | O=C(COc1ccccc1Cl)OCC(=O)N1CCN(S(=O)(=O)c2ccccc2)CC1 | inconclusive: 39.8 µM [inhibitor, single point] | –
10 | O=C(/C=C/c1ccco1)N1CCN(S(=O)(=O)c2ccccc2)CC1 | inconclusive: 9.47 µM [inhibitor, single point] | –
11 | O=C1/C(=C/c2ccco2)CCc2ccccc21 | inactive | –
12 | CCCCCCCCCCCCCCC[C@@H](O)[C@H](CO)NC(=O)CCCCCCC | inactive | –
13 | Cn1c(=O)c2c(nc(N3CCOCC3)n2C/C=C/c2ccccc2)n(C)c1=O | inconclusive: 3.98 µM [inhibitor, single point] | –
14 | Cn1ccnc1SCC(=O)Nc1ccc(F)c([N+](=O)[O-])c1 | inconclusive: 0.0282 µM [inhibitor, full curve, poor fit] | –
15 | Fc1ccc(C(c2nnnn2C2CCCC2)N2CCN(Cc3ccccc3)CC2)cc1 (configuration not stated) | inconclusive: 10 µM [inhibitor, partial curve, poor fit] | –
16 | CCCCN1C(=N)N([C@@H](C)CN2CCC[C@H]2CN2C(N)=NC[C@@H]2Cc2ccccc2)C[C@H]1[C@H](C)CC | inconclusive: 21.2 µM [inhibitor, single point] | –
17 | COc1ccc(CCNc2oc(-c3ccccc3OC)nc2C#N)cc1 | inconclusive: 7.08 µM [inhibitor, single point] | –
18 | CCO/C=C1/C(=O)N(Cc2ccccc2)C(=O)c2ccccc21 | inconclusive: 11.2 µM [inhibitor, partial curve, poor fit] | –
19 | COc1cccc(-c2ccc(SCC(=O)c3ccccc3)nn2)c1 | inconclusive: 44.7 µM [inhibitor, single point] | –
20 | O=C(c1ccccn1)N1CC=C(c2ccccc2)CC1 | inconclusive: 10 µM [inhibitor, single point] | –
21 | CC(C)C(C(=O)O)N1C(=O)/C(=C/C=C/c2ccco2)SC1=S (configuration not stated) | active: 1.58 µM | –
22 | O=C(CC1C=Cc2ccccc2N1C(=O)c1ccccc1)c1ccccc1 (configuration not stated) | inconclusive: 44.7 µM [inhibitor, single point] | –
23 | O=C(c1cnsn1)N1CCCC(Nc2ccc(F)c(F)c2)C1 (configuration not stated) | inconclusive: 0.752 µM [inhibitor, single point] | –

Row | Structure (SMILES) | Potency | activity change, negative = inhibition
24 | CC1=NN(c2ccc(C)cc2C)C(=O)C1C(c1ccccc1)C1C(=O)N(c2ccc(C)cc2C)N=C1C (configuration not stated) | inconclusive: 22.4 µM [inhibitor, partial curve] | –
25 | Cc1cc(C(=O)CSc2nnc(-c3ccccc3F)o2)c(C)n1Cc1cccs1 | inconclusive: 35.5 µM [inhibitor, single point] | –
26 | CN[C@@H]1[C@@H](O[C@H]2O[C@H](CO)[C@@H](N)[C@H](O)[C@H]2O)O[C@H]2C[C@@H](N)[C@@H](O[C@H]3[C@H](O)[C@@H](O)[C@H](N)C[C@@H]3N)O[C@@H]2[C@@H]1O | inactive | –
27 | CCc1sc(/C=C(/C#N)C(N)=S)cc1[N+](=O)[O-] | inconclusive: 39.8 µM [inhibitor, single point] | –
28 | COc1ccc(-c2cc(-c3ccc(Cl)cc3)c(C#N)c(SCC(=O)O)n2)cc1 | inactive | –
29 | Oc1ccc(-c2nc(=S)[nH][nH]2)cc1 | inactive | –
30 | COc1ccc(-c2nc3cnc(N4CCN(C)CC4)nc3n(C)c2=O)cc1 | inactive | –
31 | Cc1[nH][nH]c(=O)c1C(c1ccc(-c2ccc(Cl)c(C(=O)O)c2)o1)c1c(C)[nH][nH]c1=O | inconclusive: 44.7 µM [inhibitor, single point] | –
32 | O=C(NNC(=S)Nc1ccccc1C(F)(F)F)c1ccc(Br)o1 | inconclusive: 3.16 µM [inhibitor, single point] | –
33 | COC(=O)CN(c1ccc(OC)cc1)S(=O)(=O)c1c(C)noc1C | inconclusive: 44.7 µM [inhibitor, single point] | –
34 | Cc1cccc(C(=O)OC2CCN(C)CC2)c1 | inactive | –
35 | O=C(CSc1nc2[nH]ncc2c(=O)[nH]1)c1ccc(Cl)cc1 | inconclusive: 1.78 µM [inhibitor, full curve, poor fit] | –
36 | CCOc1ccc2cc(C(=O)c3ccccc3)c(=O)oc2c1 | inconclusive: 20 µM [inhibitor, single point] | –
37 | Cc1cc(C(=O)N/N=C/c2cn[nH]c2-c2ccccc2)cs1 | inconclusive: 0.126 µM [inhibitor, full curve, poor fit] | –
38 | CC(=O)NN1C(=O)c2ccccc2NC1c1ccc(N(C)C)cc1 (configuration not stated) | – | inconclusive: 26.6% [inhibitor]
39 | CCCn1c(NCc2ccco2)nc2c1c(=O)n(C)c(=O)n2C | inactive | –
40 | CCS(=O)(=O)N1Cc2ccccc2CC1C(=O)Nc1nc2c(C)cccc2s1 (configuration not stated) | inactive | –
41 | COc1ccc(OC)c(NC(=O)c2nnn(Cc3ccc(Br)cc3F)c2N)c1 | inconclusive: 44.7 µM [inhibitor, single point] | –
42 | COc1ccc(S(=O)(=O)N2CCCc3ccccc32)cc1OC | inconclusive: 0.1 µM [inhibitor, full curve] | –
43 | Cc1cc(C)cc(N(CC(=O)Nc2ccccc2)C2=NC3CS(=O)(=O)CC3S2)c1 (configuration not stated) | inconclusive: 14.1 µM [inhibitor, partial curve] | –
44 | COC(=O)COc1c(Cl)cc(Cl)c2ccc(C)nc12 | inconclusive: 3.55 µM [inhibitor, single point] | –
45 | O=C(O)C1Nc2c(C(F)(F)F)ccc(Cl)c2C2C=CCC12 (configuration not stated) | inactive | –
46 | COc1ccccc1C1CCN(C(=O)c2ccco2)CC1 | inconclusive: 7.94 µM [inhibitor, single point] | –

Looked up by compound from above, two records:
Row | Structure (SMILES) | Potency | activity change, negative = inhibition
42 | COc1ccc(S(=O)(=O)N2CCCc3ccccc32)cc1OC | inconclusive: 0.1 µM [inhibitor, full curve] | –
36 | CCOc1ccc2cc(C(=O)c3ccccc3)c(=O)oc2c1 | inconclusive: 20 µM [inhibitor, single point] | –

Going on with the list:

Row | Structure (SMILES) | Potency | activity change, negative = inhibition
47 | Cc1ccc(C2(CC(=O)Nc3nccs3)CCOC(C(C)C)C2)cc1 (configuration not stated) | inconclusive: 31.6 µM [inhibitor, partial curve] | –
48 | CC(C)(C)C(=O)N1CCC[C@H]1C(O)(c1ccccc1)c1ccccc1 | inconclusive: 0.0251 µM [inhibitor, full curve, poor fit] | –
49 | CCOc1ccc(CNC(=O)C2CCN(c3nn4c(=O)cc(C)nc4s3)CC2)cc1 | inactive | –
50 | CN(C)c1ccc(NC(=O)CSCc2nc3c(nnn3Cc3ccc(F)cc3)c(=O)[nH]2)cc1 | inconclusive: 39.8 µM [inhibitor, single point] | –
51 | O=C(O)/C=C/C(=O)Nc1ccc(SC(F)(F)C(F)(F)C(F)(F)F)cc1 | inactive | –
52 | COCCn1c(SCC(=O)Nc2ccc(S(=O)(=O)N(C)C)cc2)nc2ccccc21 | inconclusive: 3.55 µM [inhibitor, single point] | –
53 | COc1ccc(OC)c(C(=O)CSc2nnc(-c3cccnc3)n2C)c1 | inconclusive: 100 µM [inhibitor, partial curve, poor fit] | –
54 | O=C(CN1C(=O)CCC1=O)c1ccc(-c2ccccc2)cc1 | inconclusive: 39.8 µM [inhibitor, single point] | –
55 | COc1ccc(-c2noc(CN3CCCCC3c3nccn3C)n2)cc1 (configuration not stated) | inactive | –
56 | COCCn1c(SCC(=O)NCc2ccco2)nc2cccnc21 | inconclusive: 31.6 µM [inhibitor, single point] | –
57 | Cc1ccc(C(=O)NC(NC(=S)Nc2ccc(S(N)(=O)=O)cc2)C(Cl)(Cl)Cl)cc1 (configuration not stated) | inconclusive: 12.6 µM [inhibitor, partial curve, poor fit] | –
58 | COc1ccccc1OCCC(=O)OCC(=O)NCc1ccc(Cl)cc1 | inconclusive: 44.7 µM [inhibitor, single point] | –
59 | Cc1ccc(NC(=S)NNC(=S)Nc2cccc(C(F)(F)F)c2)cc1 | inconclusive: 7.08 µM [inhibitor, single point] | –
60 | CCc1nnc(NS(=O)(=O)c2ccc(NC(=O)c3ccccc3)cc2)s1 | inactive | –
61 | CC(C)(C)NC(=O)C(c1ccncc1)N(C(=O)CNC(=O)c1ccco1)c1ccc2c(c1)OCO2 (configuration not stated) | inconclusive: 35.5 µM [inhibitor, single point] | –
62 | COc1ccc(-c2[nH]ncc2CN2CCCN(c3ccccc3)CC2)c(F)c1 | inactive | –
63 | c1ccc2c(N3CCOCC3)c3c(nc2c1)CCC3 | inactive | –
64 | O=C(O)C1=CC(=C(c2ccc(O)c(C(=O)O)c2)c2ccc(O)c(C(=O)O)c2)C=CC1=O | active: 11.2 nM and active: 3.2 nM and active: 6.7 nM | –
65 | C[C@@H]1C(c2ccc(F)cc2)=NN(c2ccc(Br)cc2)[C@H]1C(=O)N1CCOC1=O | inconclusive: 50.1 µM [inhibitor, single point] | –
66 | N#C/C(=C\c1ccncc1)c1nc2ccccc2[nH]1 | inactive | –
67 | CO[C@H]1COC(=O)[C@@H](CCSC)NC(=O)C/C=C\[C@@H](C)COC(=O)[C@@H](OCc2ccccc2)/C=C\[C@@H]1C | inconclusive: 3.55 µM [inhibitor, single point] | –
